Reference: PubChem BioAssay AID330 (DTP/NCI, 2004)
The list is a part of this screen's results and no random one: it gathers tests that were run many times, whatever their T/C, doses with no T/C, and many T/C values between a quarter and a half above the control. Other doses and runs of a compound stand elsewhere. T/C is the treated group as % of the vehicle group. Some doses have a count of surviving animals in place of a T/C: the source files T/C as zero there, which appears to mark a toxic dose or a test without result, not a measured value. Some survivor counts are full or nearly so, which does not show that the dose was tolerated: the source hardly ever lists a survival T/C far under the control, and the zero likely stands for such cases as well. Survivors were counted at the toxicity check, usually on the fifth day, unless a day is given; later deaths do not show. Schedule codes are those of the source, taken here to give the interval after Q, in days (D) or hours (H), and the number of doses after X. Some structures stand for samples that the source files as different forms (salt, stereo form or complex); doses refer to the form tested. Some doses were run more than once; their values stand side by side, smallest first. Marks such as (2×) stand for listed records that agree. For survival time, this PubChem deposit counts one and a half times the control or more as active, and values a quarter to a half above the control carry no call in these data; other NCI protocols may use other cut-offs. Some T/C values are followed by the survivors on the day toxicity was checked, most often the fifth; without a count, all were alive then.

Tested on: P388 leukemia ip, CD2F1 mice, survival T/C
Test: NCI In Vivo Anticancer Drug Screen. Data for tumor model P388 Leukemia (intraperitoneal) in CD2F1 (CDF1) mice
Settings: T/C endpoint: median survival time, higher T/C = longer survival
[1] = dose: 30.0 mg/kg/injection, schedule: Q01DX005 (ip), vehicle: saline with Tween-80
[2] = dose: 60.0 mg/kg/injection, schedule: Q01DX005 (ip), vehicle: saline with Tween-80
[3] = dose: 120.0 mg/kg/injection, schedule: Q01DX005 (ip), vehicle: saline with Tween-80
[4] = dose: 240.0 mg/kg/injection, schedule: Q01DX005 (ip), vehicle: saline with Tween-80
[5] = dose: 25.0 mg/kg/injection, schedule: Q01DX005 (ip), vehicle: saline with Tween-80
[6] = dose: 50.0 mg/kg/injection, schedule: Q01DX005 (ip), vehicle: saline with Tween-80
[7] = dose: 100.0 mg/kg/injection, schedule: Q01DX005 (ip), vehicle: saline with Tween-80
[8] = dose: 200.0 mg/kg/injection, schedule: Q01DX005 (ip), vehicle: saline with Tween-80
[9] = dose: 200.0 mg/kg/injection, schedule: Q01DX009 (ip), vehicle: distilled water + Tween-80
[10] = dose: 50.0 mg/kg/injection, schedule: Q01DX009 (ip), vehicle: saline with Tween-80
[11] = dose: 100.0 mg/kg/injection, schedule: Q01DX009 (ip), vehicle: saline with Tween-80
[12] = dose: 200.0 mg/kg/injection, schedule: Q01DX009 (ip), vehicle: saline with Tween-80
[13] = dose: 100.0 mg/kg/injection, schedule: Q01DX005 (ip), vehicle: Klucel (hydroxypropylcellulose) (HPC)
[14] = dose: 200.0 mg/kg/injection, schedule: Q01DX005 (ip), vehicle: Klucel (hydroxypropylcellulose) (HPC)
[15] = dose: 60.0 mg/kg/injection, schedule: Q01DX005 (ip), vehicle: Klucel (hydroxypropylcellulose) (HPC)
[16] = dose: 120.0 mg/kg/injection, schedule: Q01DX005 (ip), vehicle: Klucel (hydroxypropylcellulose) (HPC)
[17] = dose: 400.0 mg/kg/injection, schedule: Q01DX009 (ip), vehicle: saline with Tween-80
[18] = dose: 200.0 mg/kg/injection, schedule: Q01DX001 (ip), vehicle: Klucel (hydroxypropylcellulose) (HPC)
[19] = dose: 400.0 mg/kg/injection, schedule: Q01DX001 (ip), vehicle: Klucel (hydroxypropylcellulose) (HPC)
[20] = dose: 200.0 mg/kg/injection, schedule: Q04DX002 (ip), vehicle: saline with Tween-80
[21] = dose: 400.0 mg/kg/injection, schedule: Q04DX002 (ip), vehicle: saline with Tween-80

c1ccc(N=c2cnc3c(ccc4ccccc43)o2)cc1
survivor count [1]: 3 of 6 | survivor count [2]: 4 of 6 | survivor count [3]: 2 of 6 | survivor count [4]: 0 of 6

Cc1nc(Br)c(Br)n1C
survivor count [4]: 0 of 6

O=C1c2cccc3cc([N+](=O)[O-])cc(c23)C(=O)N1CCCNCCNCCCN1C(=O)c2cccc3cc([N+](=O)[O-])cc(c23)C1=O
T/C [5]: 129 % of control | T/C [6]: 147 % of control | survivor count [7]: 3 of 6 | survivor count [8]: 1 of 6

N#CC(Cc1ccccc1)c1ccccc1 (centres undefined)
survivor count [9]: 4 of 6

COC1=CC2(C=CC1=O)CCC(=O)O2 (centres undefined)
survivor count [6]: 6 of 6 | survivor count [10]: 0 of 6 | survivor count [7]: 0 of 6 | survivor count [11]: 0 of 6 | survivor count [8]: 0 of 6 and 1 of 6 | survivor count [12]: 0 of 6

C=CCOc1ccccc1N/N=C(\Cl)C(=O)OCC
survivor count [10]: 5 of 6 | survivor count [11]: 0 of 6 and 3 of 6 | survivor count [12]: 0 of 6

N#Cc1c(-c2ccccc2)c(C#N)c(=O)n(N)c1N
survivor count [13]: 4 of 6 | survivor count [14]: 2 of 6

c1ccc(-n2ccnc2C2C3CCN2CC3)cc1 (centres undefined)
survivor count (dose: 100.0 mg/kg/injection, schedule: Q01DX009 (ip), vehicle: saline): 3 of 6 | survivor count (dose: 200.0 mg/kg/injection, schedule: Q01DX009 (ip), vehicle: saline): 0 of 6

Cc1cc(C)nc(C2=C(O)c3ccccc3C2=O)c1
survivor count [15]: 5 of 6 | survivor count [16]: 3 of 6

CC1(C#N)N=C(c2ccccc2)c2ccccc2N1C(=O)Oc1ccccc1 (centres undefined)
survivor count [4]: 6 of 6

COC1=C(OC)C(=O)C(SC/C=C(\C)CCCC(C)CCCC(C)CCCC(C)C)=CC1=O (centres undefined)
T/C (dose: 12.5 mg/kg/injection, schedule: Q01DX009 (ip), vehicle: saline with Tween-80): 109, 122, 123, 135 % of control | T/C (dose: 25.0 mg/kg/injection, schedule: Q01DX009 (ip), vehicle: saline with Tween-80): 117, 121, 132, 136 % of control | T/C [10]: 124, 132, 135, 145 % of control | T/C [11]: 125 (2×) and 136 % of control (2×) | T/C [12]: 94, 123, 127 % of control | survivor count [12]: 5 of 6 | T/C [17]: 137 % of control | survivor count [17]: 1 of 6 and 2 of 6

CCOC(=O)c1ccc(NC(=O)Oc2cc(C)ccc2C)cc1
survivor count [1]: 5 of 6 | survivor count [2]: 5 of 6 | survivor count [3]: 6 of 6 | survivor count [4]: 6 of 6

CCOC(=O)/N=[N+](\[O-])c1ccc(Cl)cc1
survivor count [18]: 0 of 6 | survivor count [19]: 1 of 6

Cc1ccc(/C=C2/N=C([Se])N(C)C2=O)cc1
survivor count [2]: 5 of 6 | survivor count [4]: 3 of 6

Nc1ccc2c(NCCCCCCNc3c4ccccc4nc4cc(N)ccc34)c3ccccc3nc2c1
T/C (dose: 1.25 mg/kg/injection, schedule: Q01DX009 (ip), vehicle: other): 142 % of control | T/C (dose: 2.5 mg/kg/injection, schedule: Q01DX009 (ip), vehicle: other): 139 % of control | T/C (dose: 5.0 mg/kg/injection, schedule: Q01DX009 (ip), vehicle: other): 145 % of control | T/C (dose: 10.0 mg/kg/injection, schedule: Q01DX009 (ip), vehicle: other): 147 % of control | T/C (dose: 20.0 mg/kg/injection, schedule: Q01DX009 (ip), vehicle: other): 145 % of control

C(=C\c1ccncc1)/c1ccncc1
survivor count (dose: 400.0 mg/kg/injection, schedule: Q01DX009 (ip), vehicle: Klucel (hydroxypropylcellulose) (HPC)): 3 of 6

Cc1cccc(OC(=O)Nc2ccc(C(=O)O)c(O)c2)c1
survivor count [4]: 3 of 6

CC(=O)Nc1ncnc2c1c(C(N)=O)cn2C1OC(COC(C)=O)C(OC(C)=O)C1OC(C)=O (centres undefined)
T/C (dose: 7.5 mg/kg/injection, schedule: Q01DX005 (ip), vehicle: saline): 133 % of control | survivor count (dose: 15.0 mg/kg/injection, schedule: Q01DX005 (ip), vehicle: saline): 6 of 6 | survivor count (dose: 60.0 mg/kg/injection, schedule: Q01DX005 (ip), vehicle: saline): 0 of 6 | survivor count (dose: 120.0 mg/kg/injection, schedule: Q01DX005 (ip), vehicle: saline): 0 of 6 | survivor count (dose: 240.0 mg/kg/injection, schedule: Q01DX005 (ip), vehicle: saline): 0 of 6

CN1CCCN2CCCN(C)P12
survivor count (dose: 50.0 mg/kg/injection, schedule: Q01DX005 (ip), vehicle: saline): 2 of 6 | survivor count (dose: 100.0 mg/kg/injection, schedule: Q01DX005 (ip), vehicle: saline): 0 of 6 | survivor count (dose: 200.0 mg/kg/injection, schedule: Q01DX005 (ip), vehicle: saline): 0 of 6

CC(=O)OCc1c(-c2ccccc2)nc2n1CCS2
survivor count (dose: 100.0 mg/kg/injection, schedule: Q01DX001 (ip), vehicle: Klucel (hydroxypropylcellulose) (HPC)): 3 of 6 | survivor count [18]: 0 of 6 and 4 of 6 | survivor count [19]: 0 of 6 (2×)

O=C1CC2C3C1N(c1ccc(Cl)cc1)C1(Nc4ccc(Cl)cc4)C(=O)CC(C31)N2c1ccc(Cl)cc1 (centres undefined)
survivor count [15]: 6 of 6 | survivor count [16]: 6 of 6 | survivor count (dose: 240.0 mg/kg/injection, schedule: Q01DX005 (ip), vehicle: Klucel (hydroxypropylcellulose) (HPC)): 6 of 6

N#Cc1ccoc1
survivor count (dose: 50.0 mg/kg/injection, schedule: Q01DX005 (ip), vehicle: Klucel (hydroxypropylcellulose) (HPC)): 3 of 6 | survivor count [13]: 5 of 6 | survivor count [14]: 0 of 6

CN(C)CCNC1=CC(=O)c2ccccc2C1=O
survivor count [9]: 3 of 6

O=C(COc1cc(Cl)c(Cl)cc1Cl)OCCOc1cc(Cl)c(Cl)cc1Cl
survivor count (dose: 100.0 mg/kg/injection, schedule: Q04DX003 (ip), vehicle: saline with Tween-80): 6 of 6 | survivor count (dose: 200.0 mg/kg/injection, schedule: Q04DX003 (ip), vehicle: saline with Tween-80): 6 of 6 | survivor count (dose: 400.0 mg/kg/injection, schedule: Q04DX003 (ip), vehicle: saline with Tween-80): 6 of 6

Nc1nc(N)c2c(Cl)c(CNc3ccc(C(=O)NC(CC(=O)O)CC(=O)O)cc3)ccc2n1
survivor count (dose: 12.5 mg/kg/injection, schedule: Q01DX005 (ip), vehicle: saline with Tween-80): 6 of 6 | survivor count [5]: 5 of 6 | survivor count [6]: 6 of 6 | survivor count [7]: 5 of 6 | survivor count [8]: 6 of 6

Cc1ccc2ccc3ccc(CCl)nc3c2n1
survivor count (dose: 25.0 micromoles/kg, schedule: Q01DX005 (ip), vehicle: other): 4 of 6

CCN1c2ccccc2S(=O)(=O)n2c(/C=C/c3ccc(OC)cc3)nnc21
survivor count (dose: 400.0 mg/kg/injection, schedule: Q01DX001 (ip), vehicle: saline with Tween-80): 6 of 6

CN=C(N)N/N=C(\c1ccccc1)c1ccc(F)cc1
T/C (dose: 50.0 mg/kg/injection, schedule: Q04DX002 (ip), vehicle: saline with Tween-80): 125 and 127 % of control | T/C (dose: 100.0 mg/kg/injection, schedule: Q04DX002 (ip), vehicle: saline with Tween-80): 148 % of control [5 of 6 alive] | survivor count [20]: 3 of 6 | survivor count [21]: 0 of 6

COC(=O)c1cc2c(s1)C(=O)c1ccccc1-2
survivor count [17]: 6 of 6

C1OCN2CSCC12 (centres undefined)
T/C [20]: 126 % of control | T/C [21]: 126 % of control
